Some of the results follow. Most entries show no effect beyond the scatter of the controls.

Chains of the proteins cited; added tags and fusions are not shown. Lines headed by an entry give the natural chain unless they say otherwise; changes in a name come on top.
UniProt Q66K14, whole entry: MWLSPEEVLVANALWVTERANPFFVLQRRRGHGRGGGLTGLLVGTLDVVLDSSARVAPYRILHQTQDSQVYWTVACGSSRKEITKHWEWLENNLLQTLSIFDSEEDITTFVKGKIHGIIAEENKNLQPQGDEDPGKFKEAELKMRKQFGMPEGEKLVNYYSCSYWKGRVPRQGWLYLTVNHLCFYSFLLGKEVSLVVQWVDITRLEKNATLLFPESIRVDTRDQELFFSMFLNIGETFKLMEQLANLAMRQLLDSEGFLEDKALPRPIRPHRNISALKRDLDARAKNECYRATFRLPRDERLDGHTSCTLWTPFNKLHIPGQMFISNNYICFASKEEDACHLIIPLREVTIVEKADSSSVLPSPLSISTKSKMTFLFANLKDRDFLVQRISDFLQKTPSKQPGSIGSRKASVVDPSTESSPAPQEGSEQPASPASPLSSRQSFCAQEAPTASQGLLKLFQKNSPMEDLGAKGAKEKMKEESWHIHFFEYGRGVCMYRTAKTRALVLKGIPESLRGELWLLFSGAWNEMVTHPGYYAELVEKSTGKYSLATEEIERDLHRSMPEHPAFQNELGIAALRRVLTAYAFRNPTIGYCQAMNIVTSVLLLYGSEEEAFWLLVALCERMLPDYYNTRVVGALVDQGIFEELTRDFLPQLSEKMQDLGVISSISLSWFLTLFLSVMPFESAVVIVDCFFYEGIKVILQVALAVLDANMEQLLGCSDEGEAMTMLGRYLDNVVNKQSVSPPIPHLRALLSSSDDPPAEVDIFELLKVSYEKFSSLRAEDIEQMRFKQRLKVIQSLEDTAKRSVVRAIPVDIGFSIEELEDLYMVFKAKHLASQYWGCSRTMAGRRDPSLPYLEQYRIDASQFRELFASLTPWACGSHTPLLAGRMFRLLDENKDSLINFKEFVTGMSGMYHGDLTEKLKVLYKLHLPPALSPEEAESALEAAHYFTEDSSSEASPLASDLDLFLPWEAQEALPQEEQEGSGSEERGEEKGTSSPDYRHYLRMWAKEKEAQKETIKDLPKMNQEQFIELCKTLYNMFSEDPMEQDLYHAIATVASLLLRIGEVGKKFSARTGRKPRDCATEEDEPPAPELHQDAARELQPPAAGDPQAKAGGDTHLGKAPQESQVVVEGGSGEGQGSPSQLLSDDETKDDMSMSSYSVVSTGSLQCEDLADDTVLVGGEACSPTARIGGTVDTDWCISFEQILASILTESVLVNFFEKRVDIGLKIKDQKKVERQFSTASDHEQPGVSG
UniProt Q6PJG2: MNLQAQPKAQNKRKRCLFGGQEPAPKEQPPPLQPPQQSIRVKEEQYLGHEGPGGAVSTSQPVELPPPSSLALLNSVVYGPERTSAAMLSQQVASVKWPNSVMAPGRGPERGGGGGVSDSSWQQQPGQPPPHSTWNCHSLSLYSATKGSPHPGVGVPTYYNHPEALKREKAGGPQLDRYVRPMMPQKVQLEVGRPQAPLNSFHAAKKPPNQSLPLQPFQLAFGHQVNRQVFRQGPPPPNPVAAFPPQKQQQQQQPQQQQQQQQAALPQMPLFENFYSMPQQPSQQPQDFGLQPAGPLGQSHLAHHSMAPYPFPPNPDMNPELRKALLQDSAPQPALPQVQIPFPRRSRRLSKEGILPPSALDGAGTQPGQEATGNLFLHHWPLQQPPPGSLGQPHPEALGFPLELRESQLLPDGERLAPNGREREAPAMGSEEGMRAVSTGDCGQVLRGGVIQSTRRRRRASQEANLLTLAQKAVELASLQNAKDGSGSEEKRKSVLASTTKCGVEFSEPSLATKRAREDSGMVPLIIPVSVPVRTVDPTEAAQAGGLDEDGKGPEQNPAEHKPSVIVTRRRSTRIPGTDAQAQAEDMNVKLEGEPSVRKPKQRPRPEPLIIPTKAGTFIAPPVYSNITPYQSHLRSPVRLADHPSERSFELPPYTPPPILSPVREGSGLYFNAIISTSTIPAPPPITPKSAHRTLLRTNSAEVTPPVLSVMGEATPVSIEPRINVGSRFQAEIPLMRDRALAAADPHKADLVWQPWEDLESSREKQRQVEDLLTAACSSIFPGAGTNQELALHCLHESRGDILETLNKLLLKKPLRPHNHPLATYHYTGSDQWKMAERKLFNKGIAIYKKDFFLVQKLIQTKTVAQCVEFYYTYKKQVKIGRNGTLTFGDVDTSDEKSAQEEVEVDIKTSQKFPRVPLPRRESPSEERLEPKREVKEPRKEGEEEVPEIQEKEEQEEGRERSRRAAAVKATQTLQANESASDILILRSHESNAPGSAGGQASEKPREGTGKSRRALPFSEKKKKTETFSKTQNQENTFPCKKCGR
UniProt Q6S8J7: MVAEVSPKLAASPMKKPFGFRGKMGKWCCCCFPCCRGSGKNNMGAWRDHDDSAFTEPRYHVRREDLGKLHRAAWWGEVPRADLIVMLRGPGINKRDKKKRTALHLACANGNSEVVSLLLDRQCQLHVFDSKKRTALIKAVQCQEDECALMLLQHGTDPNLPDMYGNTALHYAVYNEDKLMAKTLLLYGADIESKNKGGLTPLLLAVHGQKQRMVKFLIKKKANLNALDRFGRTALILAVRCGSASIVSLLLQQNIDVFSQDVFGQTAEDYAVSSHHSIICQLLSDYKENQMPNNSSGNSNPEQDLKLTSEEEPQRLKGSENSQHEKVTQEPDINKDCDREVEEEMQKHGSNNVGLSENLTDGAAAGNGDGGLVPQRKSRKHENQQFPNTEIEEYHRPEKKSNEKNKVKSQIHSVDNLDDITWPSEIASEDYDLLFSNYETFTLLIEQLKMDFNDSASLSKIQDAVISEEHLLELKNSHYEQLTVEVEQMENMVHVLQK
UniProt Q6PJ21: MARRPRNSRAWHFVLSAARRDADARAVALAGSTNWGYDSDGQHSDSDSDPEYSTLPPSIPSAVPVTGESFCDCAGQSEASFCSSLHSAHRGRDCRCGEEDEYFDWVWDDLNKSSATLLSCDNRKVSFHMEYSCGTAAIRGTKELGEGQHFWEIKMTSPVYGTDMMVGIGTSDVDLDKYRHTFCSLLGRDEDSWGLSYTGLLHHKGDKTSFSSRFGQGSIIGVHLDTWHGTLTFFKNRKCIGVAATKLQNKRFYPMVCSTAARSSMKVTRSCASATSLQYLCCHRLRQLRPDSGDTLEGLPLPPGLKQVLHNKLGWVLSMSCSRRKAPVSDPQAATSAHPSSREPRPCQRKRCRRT
UniProt Q5W0B1: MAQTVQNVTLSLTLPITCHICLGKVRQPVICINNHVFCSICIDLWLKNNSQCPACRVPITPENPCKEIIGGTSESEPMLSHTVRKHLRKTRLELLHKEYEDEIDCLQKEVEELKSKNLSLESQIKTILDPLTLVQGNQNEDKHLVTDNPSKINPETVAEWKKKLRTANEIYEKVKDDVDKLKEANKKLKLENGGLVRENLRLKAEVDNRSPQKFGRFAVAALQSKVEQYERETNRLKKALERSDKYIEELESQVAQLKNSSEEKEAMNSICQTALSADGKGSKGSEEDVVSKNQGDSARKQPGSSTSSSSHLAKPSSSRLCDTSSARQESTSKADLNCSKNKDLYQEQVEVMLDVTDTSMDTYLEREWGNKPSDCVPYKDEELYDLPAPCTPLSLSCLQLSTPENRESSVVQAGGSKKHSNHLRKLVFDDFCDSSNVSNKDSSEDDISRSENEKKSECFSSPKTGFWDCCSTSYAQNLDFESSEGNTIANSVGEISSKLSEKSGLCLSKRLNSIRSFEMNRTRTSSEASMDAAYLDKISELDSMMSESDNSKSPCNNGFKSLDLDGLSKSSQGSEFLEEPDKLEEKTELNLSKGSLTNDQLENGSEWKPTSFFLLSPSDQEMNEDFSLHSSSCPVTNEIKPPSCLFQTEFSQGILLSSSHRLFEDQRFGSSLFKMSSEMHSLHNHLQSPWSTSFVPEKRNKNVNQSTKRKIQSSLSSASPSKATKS
UniProt Q6NVH7: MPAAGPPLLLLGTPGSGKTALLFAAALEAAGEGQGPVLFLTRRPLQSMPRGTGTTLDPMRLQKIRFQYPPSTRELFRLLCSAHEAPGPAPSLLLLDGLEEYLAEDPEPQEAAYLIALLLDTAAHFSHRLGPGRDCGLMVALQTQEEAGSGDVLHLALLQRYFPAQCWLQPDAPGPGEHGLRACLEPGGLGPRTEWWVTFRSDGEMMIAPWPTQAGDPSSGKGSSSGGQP
UniProt Q5VZL5: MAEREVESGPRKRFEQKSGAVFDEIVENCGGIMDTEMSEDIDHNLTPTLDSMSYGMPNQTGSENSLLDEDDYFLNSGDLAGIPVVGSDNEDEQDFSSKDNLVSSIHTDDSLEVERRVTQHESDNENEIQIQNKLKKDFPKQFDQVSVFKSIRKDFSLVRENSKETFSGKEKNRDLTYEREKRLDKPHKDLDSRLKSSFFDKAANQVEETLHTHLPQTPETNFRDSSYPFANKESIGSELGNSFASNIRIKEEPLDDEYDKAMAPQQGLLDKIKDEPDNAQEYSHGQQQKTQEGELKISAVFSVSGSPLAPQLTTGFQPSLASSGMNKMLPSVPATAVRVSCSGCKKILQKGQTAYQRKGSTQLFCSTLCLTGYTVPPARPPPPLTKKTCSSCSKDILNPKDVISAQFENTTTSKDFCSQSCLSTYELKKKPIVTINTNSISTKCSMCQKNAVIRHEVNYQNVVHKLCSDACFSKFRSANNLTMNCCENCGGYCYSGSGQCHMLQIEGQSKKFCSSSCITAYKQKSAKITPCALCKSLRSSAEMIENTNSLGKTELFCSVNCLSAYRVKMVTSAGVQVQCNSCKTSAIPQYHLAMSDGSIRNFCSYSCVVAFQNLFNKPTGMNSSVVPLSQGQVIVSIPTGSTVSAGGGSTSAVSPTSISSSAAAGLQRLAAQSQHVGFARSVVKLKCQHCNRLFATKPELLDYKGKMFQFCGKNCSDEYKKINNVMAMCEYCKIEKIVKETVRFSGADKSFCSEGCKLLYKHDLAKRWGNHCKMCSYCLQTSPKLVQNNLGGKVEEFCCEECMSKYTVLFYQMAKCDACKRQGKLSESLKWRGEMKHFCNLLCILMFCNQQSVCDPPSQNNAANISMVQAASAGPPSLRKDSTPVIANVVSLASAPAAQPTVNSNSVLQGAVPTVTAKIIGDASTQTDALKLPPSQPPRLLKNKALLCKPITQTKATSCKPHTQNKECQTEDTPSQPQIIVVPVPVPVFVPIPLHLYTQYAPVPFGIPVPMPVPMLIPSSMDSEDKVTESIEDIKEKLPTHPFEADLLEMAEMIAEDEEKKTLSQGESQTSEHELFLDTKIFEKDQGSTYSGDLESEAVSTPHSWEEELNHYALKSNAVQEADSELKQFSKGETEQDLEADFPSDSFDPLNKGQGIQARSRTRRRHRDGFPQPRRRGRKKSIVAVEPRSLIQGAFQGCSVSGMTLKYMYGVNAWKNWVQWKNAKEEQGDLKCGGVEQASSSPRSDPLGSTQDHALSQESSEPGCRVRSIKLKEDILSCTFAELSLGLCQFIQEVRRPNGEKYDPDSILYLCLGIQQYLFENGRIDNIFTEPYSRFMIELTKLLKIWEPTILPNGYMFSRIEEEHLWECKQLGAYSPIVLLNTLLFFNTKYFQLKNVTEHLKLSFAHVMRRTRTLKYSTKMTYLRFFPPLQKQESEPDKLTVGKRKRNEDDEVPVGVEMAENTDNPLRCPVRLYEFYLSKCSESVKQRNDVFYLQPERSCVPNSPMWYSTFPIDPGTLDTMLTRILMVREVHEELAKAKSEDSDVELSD
UniProt Q6UWH6: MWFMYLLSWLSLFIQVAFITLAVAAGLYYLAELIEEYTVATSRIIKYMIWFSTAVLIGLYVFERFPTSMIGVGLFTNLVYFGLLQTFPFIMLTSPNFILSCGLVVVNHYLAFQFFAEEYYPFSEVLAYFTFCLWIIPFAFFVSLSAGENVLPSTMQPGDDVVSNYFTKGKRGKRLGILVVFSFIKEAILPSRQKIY
UniProt Q6NXT1: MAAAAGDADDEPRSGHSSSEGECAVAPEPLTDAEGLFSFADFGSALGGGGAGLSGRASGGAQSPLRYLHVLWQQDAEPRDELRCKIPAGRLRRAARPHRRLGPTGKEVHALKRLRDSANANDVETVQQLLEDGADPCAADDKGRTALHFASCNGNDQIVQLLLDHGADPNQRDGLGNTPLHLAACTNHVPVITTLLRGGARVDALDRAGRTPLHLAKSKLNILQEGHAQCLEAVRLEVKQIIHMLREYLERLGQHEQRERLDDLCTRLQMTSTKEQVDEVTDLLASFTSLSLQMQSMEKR
UniProt Q6PK04: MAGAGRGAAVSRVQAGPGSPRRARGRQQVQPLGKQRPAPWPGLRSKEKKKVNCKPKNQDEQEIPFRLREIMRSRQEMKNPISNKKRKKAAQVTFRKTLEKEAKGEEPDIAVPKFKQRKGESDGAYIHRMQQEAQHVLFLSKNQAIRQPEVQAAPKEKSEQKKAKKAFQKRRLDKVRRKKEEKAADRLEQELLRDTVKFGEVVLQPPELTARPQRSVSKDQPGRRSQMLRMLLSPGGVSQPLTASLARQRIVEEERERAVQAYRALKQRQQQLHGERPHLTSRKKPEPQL

Compound in the assay: CN[C@@H]1C[C@H]2O[C@@](C)([C@@H]1OC)n1c3ccccc3c3c4c(c5c6ccccc6n2c5c31)C(=O)NC4 [staurosporine]
Briefly: log2 fold change of tryptic peptide abundance, ligand vs vehicle (limited proteolysis) (log2 ratio); higher = more trypsin-susceptible (destabilized). Conditions: ligand concentration: 20 uM; sample: K562 cleared lysate; digestion: 4 min, 22 C (HT-PELSA RT4min, Orbitrap Astral).
Consider “TBC1D9B (peptide sequence: AEDIEQMR, peptide start residue: 779) (UniProt Q66K14)”, for which the log2 fold change was -0.334.

Consider “ELMSAN1 (peptide sequence: TVAQCVEFYYTYKK, peptide start residue: 863) (UniProt Q6PJG2)”, for which the log2 fold change is 0.433. Regarding “UniProt Q6PJW8 (peptide sequence: TVQPHTVTALR, peptide start residue: 240)”, the log2 fold change turned out to be 0.436.

For the target “CIAPIN1 (peptide sequence: CASCPYLGMPAFKPGEK, peptide start residue: 285) (UniProt Q6FI81)”, the log2 fold change came to 0.145. The result for “UniProt Q6NSW5 (peptide sequence: TLPALVWHR, peptide start residue: 199)” reads -0.357; that for “MSANTD2 (peptide sequence: APGPAMYER, peptide start residue: 140) (UniProt Q6P1R3)”, -0.111.

Consider “FIP1L1 (peptide sequence: DHSPTPSVFNSDEER, peptide start residue: 490) (UniProt Q6UN15)”, for which the log2 fold change turned out to be 0.547.

Take “ELP2 (peptide sequence: VLSLCGHEDWIR, peptide start residue: 200) (UniProt Q6IA86)”: the log2 fold change came out at 0.392. Turning to “UniProt Q6S8J7 (peptide sequence: ANLNALDR, peptide start residue: 296)”, the log2 fold change came out at 0.0127.

“UniProt Q6PJ21 (peptide sequence: APVSDPQAATSAHPSSR, peptide start residue: 326)”: the log2 fold change was determined as 0.667. “UniProt Q5W0B1 (peptide sequence: KIQSSLSSASPSK, peptide start residue: 710)”: the log2 fold change was found to be 1.67. Take “BLOC1S3 (peptide sequence: ESAEEAWGTEEAPAPAPAR, peptide start residue: 88) (UniProt Q6QNY0)”: the log2 fold change is -0.0977. The result for “UniProt Q69YQ0 (peptide sequence: PENSSSASTGGK, peptide start residue: 28)” reads -1.31; that for “SWSAP1 (peptide sequence: GTGTTLDPMR, peptide start residue: 51) (UniProt Q6NVH7)”, 0.217. For the target “ZMYM4 (peptide sequence: LDKPHKDLDSR, peptide start residue: 183) (UniProt Q5VZL5)”, the log2 fold change stood at 0.569. In the case of “ANKRD16 (peptide sequence: KADWTPLMMACTR, peptide start residue: 102) (UniProt Q6P6B7)”, the log2 fold change turned out to be 0.362. The result for “UniProt Q6ECI4 (peptide sequence: VHTGEKPYECIECGK, peptide start residue: 333)” reads 0.714.

Regarding “UniProt Q63HN8 (peptide sequence: EACNQDALQEAGTFR, peptide start residue: 3607)”, the log2 fold change was 0.757. The result for “UniProt Q6UWH6 (peptide sequence: RLGILVVFSFIK, peptide start residue: 174)” reads 0.364. Take “ANKS6 (peptide sequence: SGGSIDNVLSQIAAQR, peptide start residue: 657) (UniProt Q68DC2)”: the log2 fold change is -0.327. The result for “UniProt Q5XUX0 (peptide sequence: ESQPSPAQPR, peptide start residue: 399)” reads -0.257; that for “TRIM65 (peptide sequence: TEGRCVCSVCTVR, peptide start residue: 108) (UniProt Q6PJ69)”, 0.609. With “SPTY2D1 (peptide sequence: GVQSAAVQAFLK, peptide start residue: 38) (UniProt Q68D10)”, the log2 fold change is -0.542. For “FAM199X (peptide sequence: FLTPEEPFPLLGPPR, peptide start residue: 14) (UniProt Q6PEV8)”, the log2 fold change stood at 0.388. The result for “ANKRD54 (peptide sequence: QIIHMLR, peptide start residue: 240) (UniProt Q6NXT1)” reads 0.232.

As for “UniProt Q6NW34 (peptide sequence: VFKEESSEFDVR, peptide start residue: 302)”, the log2 fold change is -0.333. Regarding “UniProt Q5XG87 (peptide sequence: GSHGHTQGGGYSSVGSGGVRPPVGNR, peptide start residue: 719)”, the log2 fold change was -0.437. As for “SIGIRR (peptide sequence: SSEVDVSDLGSR, peptide start residue: 382) (UniProt Q6IA17)”, the log2 fold change is -0.0206.

For “BCOR (peptide sequence: DVTDKPLDLSSK, peptide start residue: 435) (UniProt Q6W2J9)”, the log2 fold change amounted to 0.772. The result for “CWF19L1 (peptide sequence: SHHLQLQVIPVPISCSTTDDIK, peptide start residue: 412) (UniProt Q69YN2)” reads -0.609. As to “PHLDB3 (peptide sequence: GNSCGAIHPDIAHMER, peptide start residue: 445) (UniProt Q6NSJ2)”, the log2 fold change came to 1.41.

For “RNF123 (peptide sequence: DTEDKLR, peptide start residue: 785) (UniProt Q5XPI4)”, the log2 fold change is -0.456. The result for “UniProt Q68CL5 (peptide sequence: GPSGPSGPSTSSTSK, peptide start residue: 275)” reads 0.136; that for “CCDC137 (peptide sequence: GESDGAYIHR, peptide start residue: 119) (UniProt Q6PK04)”, 0.429. For the target “OGFOD2 (peptide sequence: NSLCPMCCR, peptide start residue: 314) (UniProt Q6N063)”, the log2 fold change stood at 0.126. The result for “MAST2 (peptide sequence: QHPFFTGLDWTGLLR, peptide start residue: 781) (UniProt Q6P0Q8)” reads -0.432.

These data come from the supplement of paper PMC12819154, “High-throughput peptide-centric local stability assay extends protein–ligand identification to membrane proteins, tissues and bacteria” (Nature Structural & Molecular Biology, 2025).
